According to PMC8882575:
No constants are given. Whether binding was seen depends on the method and setting. Binding seen in cells or lysates may run through a third protein. Some entries that bind do so weakly or less than the wild type.

Tests used:
[1] = biological target: RNF168 (human (endogenous in HEK293)) (UniProt Q8IYW5); assay: co-IP; RNF168 co-IP from nuclear fractions of HEK293 cells transfected with GFP-Q23 or GFP-Q74 and treated with 5 uM synthetic MIU1 peptide or DMSO (mock) for 24 h; eluates blotted for p62
[2] = biological target: RNF168 (human (endogenous in HEK293)) (UniProt Q8IYW5); assay: co-IP; anti-RNF168 antibody cross-linked (BS3) to protein G Dynabeads; 150-200 ug nuclear extracts (soluble and insoluble nuclear fractions combined) of HEK293 cells transfected with GFP-Q23 or GFP-Q74; 2 h at 4 °C; washes in 1% and 0.2% NP-40 lysis buffer; eluates blotted for p62

binding [1]: binds
binding [2]: binds
Substance: p62/SQSTM1 (from UniProt Q13501 1-440)
